Measured values reported in the supplement of paper PMC8728848.
Some of the results follow.

Assays:
Test in all cases: glycan array binding signal (z-score within array); higher = stronger binding
Settings in all cases: glycan notation: IUPAC condensed, linker removed
GlcNAc(b1-3)Gal(b1-4)Glc = biological target: GlcNAc(b1-3)Gal(b1-4)Glc
Outline: (§1)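 Glycan array data were curated from 3228 arrays in the Consortium for Functional Glycomics database and kept only where the protein sequence was available. Glycan names were converted to IUPAC-condensed notation, and columns mapping to the same glycan were averaged. The binding signal is a within-array Z-score, averaged across arrays of the same protein sequence at different concentrations or buffers and across linkers. Negative Z-scores can be read as non-binding.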

[1] = biological target: GlcNAc(b1-3)Gal(b1-4)GlcNAc
Outline: as §1

[2] = biological target: GlcNAc(b1-3)Gal(b1-4)GlcNAc(b1-2)Man(a1-3)[GlcNAc(b1-3)Gal(b1-4)GlcNAc(b1-2)Man(a1-6)]Man(b1-4)GlcNAc(b1-4)GlcNAc
Outline: as §1

[3] = biological target: GlcNAc(b1-3)Gal(b1-4)GlcNAc(b1-2)Man(a1-3)[GlcNAc(b1-3)Gal(b1-4)GlcNAc(b1-2)Man(a1-6)]Man(b1-4)GlcNAc(b1-4)[Fuc(a1-6)]GlcNAc
Outline: as §1

[4] = biological target: GlcNAc(b1-3)Gal(b1-4)GlcNAc(b1-2)[GlcNAc(b1-3)Gal(b1-4)GlcNAc(b1-6)]Man(a1-6)[GlcNAc(b1-3)Gal(b1-4)GlcNAc(b1-2)Man(a1-3)]Man(b1-4)GlcNAc(b1-4)GlcNAc
Outline: as §1

[5] = biological target: GlcNAc(b1-3)Gal(b1-4)GlcNAc(b1-3)Gal(b1-4)GlcNAc
Outline: as §1

[6] = biological target: GlcNAc(b1-3)Gal(b1-4)GlcNAc(b1-3)Gal(b1-4)GlcNAc(b1-2)Man(a1-3)[GlcNAc(b1-3)Gal(b1-4)GlcNAc(b1-3)Gal(b1-4)GlcNAc(b1-2)Man(a1-6)]Man(b1-4)GlcNAc(b1-4)GlcNAc
Outline: as §1

[7] = biological target: GlcNAc(b1-3)Gal(b1-4)GlcNAc(b1-3)Gal(b1-4)GlcNAc(b1-2)Man(a1-3)[GlcNAc(b1-3)Gal(b1-4)GlcNAc(b1-3)Gal(b1-4)GlcNAc(b1-2)Man(a1-6)]Man(b1-4)GlcNAc(b1-4)[Fuc(a1-6)]GlcNAc
Outline: as §1

[8] = biological target: GlcNAc(b1-3)Gal(b1-4)GlcNAc(b1-3)Gal(b1-4)GlcNAc(b1-2)[GlcNAc(b1-3)Gal(b1-4)GlcNAc(b1-3)Gal(b1-4)GlcNAc(b1-6)]Man(a1-6)[GlcNAc(b1-3)Gal(b1-4)GlcNAc(b1-3)Gal(b1-4)GlcNAc(b1-2)Man(a1-3)]Man(b1-4)GlcNAc(b1-4)[Fuc(a1-6)]GlcNAc
Outline: as §1

[9] = biological target: GlcNAc(b1-3)Gal(b1-4)GlcNAc(b1-3)Gal(b1-4)GlcNAc(b1-3)Gal(b1-4)GlcNAc(b1-2)Man(a1-3)[GlcNAc(b1-3)Gal(b1-4)GlcNAc(b1-3)Gal(b1-4)GlcNAc(b1-3)Gal(b1-4)GlcNAc(b1-2)Man(a1-6)]Man(b1-4)GlcNAc(b1-4)GlcNAc
Outline: as §1

[10] = biological target: GlcNAc(b1-3)Gal(b1-4)GlcNAc(b1-3)Gal(b1-4)GlcNAc(b1-3)Gal(b1-4)GlcNAc(b1-2)Man(a1-3)[GlcNAc(b1-3)Gal(b1-4)GlcNAc(b1-3)Gal(b1-4)GlcNAc(b1-3)Gal(b1-4)GlcNAc(b1-2)Man(a1-6)]Man(b1-4)GlcNAc(b1-4)[Fuc(a1-6)]GlcNAc
Outline: as §1

[11] = biological target: GlcNAc(b1-3)Gal(b1-4)GlcNAc(b1-3)Gal(b1-4)GlcNAc(b1-3)Gal(b1-4)GlcNAc(b1-2)[GlcNAc(b1-3)Gal(b1-4)GlcNAc(b1-3)Gal(b1-4)GlcNAc(b1-3)Gal(b1-4)GlcNAc(b1-6)]Man(a1-6)[GlcNAc(b1-3)Gal(b1-4)GlcNAc(b1-3)Gal(b1-4)GlcNAc(b1-3)Gal(b1-4)GlcNAc(b1-2)Man(a1-3)]Man(b1-4)GlcNAc(b1-4)[Fuc(a1-6)]GlcNAc
Outline: as §1

[12] = biological target: GlcNAc(b1-3)Gal(b1-4)GlcNAc(b1-3)Gal(b1-4)GlcNAc(b1-3)Gal(b1-4)GlcNAc(b1-3)Gal(b1-4)GlcNAc(b1-2)Man(a1-3)[GlcNAc(b1-3)Gal(b1-4)GlcNAc(b1-3)Gal(b1-4)GlcNAc(b1-3)Gal(b1-4)GlcNAc(b1-3)Gal(b1-4)GlcNAc(b1-2)Man(a1-6)]Man(b1-4)GlcNAc(b1-4)GlcNAc
Outline: as §1

[13] = biological target: GlcNAc(b1-3)Gal(b1-4)GlcNAc(b1-3)Gal(b1-4)GlcNAc(b1-3)Gal(b1-4)GlcNAc(b1-3)Gal(b1-4)GlcNAc(b1-2)Man(a1-3)[GlcNAc(b1-3)Gal(b1-4)GlcNAc(b1-3)Gal(b1-4)GlcNAc(b1-3)Gal(b1-4)GlcNAc(b1-3)Gal(b1-4)GlcNAc(b1-2)Man(a1-6)]Man(b1-4)GlcNAc(b1-4)[Fuc(a1-6)]GlcNAc
Outline: as §1

[14] = biological target: GlcNAc(b1-3)Gal(b1-4)GlcNAc(b1-3)Gal(b1-4)GlcNAc(b1-3)Gal(b1-4)GlcNAc(b1-3)Gal(b1-4)GlcNAc(b1-2)[GlcNAc(b1-3)Gal(b1-4)GlcNAc(b1-3)Gal(b1-4)GlcNAc(b1-3)Gal(b1-4)GlcNAc(b1-3)Gal(b1-4)GlcNAc(b1-6)]Man(a1-6)[GlcNAc(b1-3)Gal(b1-4)GlcNAc(b1-3)Gal(b1-4)GlcNAc(b1-3)Gal(b1-4)GlcNAc(b1-3)Gal(b1-4)GlcNAc(b1-2)Man(a1-3)]Man(b1-4)GlcNAc(b1-4)[Fuc(a1-6)]GlcNAc
Outline: as §1

[15] = biological target: GlcNAc(b1-3)Gal(b1-4)GlcNAc(b1-3)Gal(b1-4)GlcNAc(b1-3)GalNAc
Outline: as §1

[16] = biological target: GlcNAc(b1-3)Gal(b1-4)GlcNAc(b1-3)GalNAc
Outline: as §1

[17] = biological target: GlcNAc(b1-3)Gal(b1-4)GlcNAc(b1-3)[GlcNAc(b1-3)Gal(b1-4)GlcNAc(b1-3)]GalNAc
Outline: as §1

[18] = biological target: GlcNAc(b1-3)Gal(b1-4)GlcNAc(b1-6)[Gal(b1-3)]GalNAc
Outline: as §1

[19] = biological target: GlcNAc(b1-3)Gal(b1-4)GlcNAc(b1-6)[GlcNAc(b1-3)Gal(b1-3)]GalNAc
Outline: as §1

[20] = biological target: GlcNAc(b1-3)Gal(b1-4)GlcNAc(b1-6)[GlcNAc(b1-3)]Gal(b1-4)GlcNAc
Outline: as §1

GlcNAc(b1-3)GalNAc = biological target: GlcNAc(b1-3)GalNAc
Outline: as §1

GlcNAc(b1-3)Man = biological target: GlcNAc(b1-3)Man
Outline: as §1

[21] = biological target: GlcNAc(b1-3)[GlcNAc(b1-4)][GlcNAc(b1-6)]GlcNAc
Outline: as §1

[22] = biological target: GlcNAc(b1-3)[GlcNAc(b1-6)]Gal(b1-4)GlcNAc
Outline: as §1

[23] = biological target: GlcNAc(b1-3)[GlcNAc(b1-6)]GalNAc
Outline: as §1

[24] = biological target: GlcNAc(b1-4)Gal(b1-4)GlcNAc
Outline: as §1

GlcNAc(b1-4)GlcNAc = biological target: GlcNAc(b1-4)GlcNAc
Outline: as §1

[25] = biological target: GlcNAc(b1-4)GlcNAc(b1-4)GlcNAc
Outline: as §1

[26] = biological target: GlcNAc(b1-4)GlcNAc(b1-4)GlcNAc(b1-4)GlcNAc(b1-4)GlcNAc
Outline: as §1

[27] = biological target: GlcNAc(b1-4)GlcNAc(b1-4)GlcNAc(b1-4)GlcNAc(b1-4)GlcNAc(b1-4)GlcNAc
Outline: as §1

[28] = biological target: GlcNAc(b1-4)[GlcNAc(b1-6)]GalNAc
Outline: as §1

[29] = biological target: GlcNAc(b1-6)Gal(b1-4)GlcNAc
Outline: as §1

GlcNAc(b1-6)GalNAc = biological target: GlcNAc(b1-6)GalNAc
Outline: as §1

[30] = biological target: GlcNAc6S(b1-3)Gal(b1-4)GlcNAc
Outline: as §1

Kdn(a2-3)Gal(b1-3)GalNAc = biological target: Kdn(a2-3)Gal(b1-3)GalNAc
Outline: as §1

Kdn(a2-3)Gal(b1-3)GlcNAc = biological target: Kdn(a2-3)Gal(b1-3)GlcNAc
Outline: as §1

B1: SP15308F-bth-333-19-333 (Bacteroides thetaiotaomicron) (protein)
chain: SCNNEWESEQYVQMVSFKAPVNAQGVTPIYIRYKPEGKVTYQLPLIVSGSTMNSKDLNVHVGLDLDTLDVLNVEHFGSRKELFFKPLENKYYEFPETVQIPAGECTSLLPIDFALKDLDQVDKWVLPLAIQSNDPSHNYQANPRKFYRRAMLRISPFNDYSGQYSATAYKVYFKGNEKEAIVPEYHTSYVIDDKTIFFYAGLIDIDRLDRKYYKIKFEFTEEKIDLQTRKLKISSDNEDINLVVKGQPSYTVEEEMDATRPYLKHIYVTINNLEYEFTDYTSVPGYPLEYVVKGSLTMERKINTQIPDEDQAIEW
GlcNAc(b1-3)Gal(b1-4)Glc
  glycan array binding signal (z-score): 0.588
[1]
  glycan array binding signal (z-score): -0.835
[2]
  glycan array binding signal (z-score): 0.374
[3]
  glycan array binding signal (z-score): 0.789
[4]
  glycan array binding signal (z-score): 2.85
[5]
  glycan array binding signal (z-score): -0.237
[6]
  glycan array binding signal (z-score): 0.614
[7]
  glycan array binding signal (z-score): -0.419
[8]
  glycan array binding signal (z-score): -0.319
[9]
  glycan array binding signal (z-score): 1.2
[10]
  glycan array binding signal (z-score): 0.405
[11]
  glycan array binding signal (z-score): 0.587
[12]
  glycan array binding signal (z-score): -0.759
[13]
  glycan array binding signal (z-score): 2.43
[14]
  glycan array binding signal (z-score): 0.208
[15]
  glycan array binding signal (z-score): -0.605
[16]
  glycan array binding signal (z-score): 1.39
[17]
  glycan array binding signal (z-score): 0.497
[18]
  glycan array binding signal (z-score): -0.053
[19]
  glycan array binding signal (z-score): -0.838
[20]
  glycan array binding signal (z-score): -0.653
GlcNAc(b1-3)GalNAc
  glycan array binding signal (z-score): 0.057
GlcNAc(b1-3)Man
  glycan array binding signal (z-score): -0.315
[21]
  glycan array binding signal (z-score): -0.542
[22]
  glycan array binding signal (z-score): 0.452
[23]
  glycan array binding signal (z-score): 0.482
[24]
  glycan array binding signal (z-score): -1.27
GlcNAc(b1-4)GlcNAc
  glycan array binding signal (z-score): -0.867
[25]
  glycan array binding signal (z-score): -1.92
[26]
  glycan array binding signal (z-score): -0.314
[27]
  glycan array binding signal (z-score): -2
[28]
  glycan array binding signal (z-score): 0.249
[29]
  glycan array binding signal (z-score): 0.112
GlcNAc(b1-6)GalNAc
  glycan array binding signal (z-score): 0.53
[30]
  glycan array binding signal (z-score): -0.68
Kdn(a2-3)Gal(b1-3)GalNAc
  glycan array binding signal (z-score): 0.817
Kdn(a2-3)Gal(b1-3)GlcNAc
  glycan array binding signal (z-score): -0.01
